The list does not hold the whole screen: it gathers tests that were run many times, whatever their T/C, doses with no T/C, and many T/C values between a quarter and a half above the control. Further doses and runs are listed elsewhere. T/C gives the treated animals as a percentage of the vehicle group. Some doses have a count of surviving animals in place of a T/C: the source files T/C as zero there, which appears to mark a toxic dose or a test without result, not a measured value. Some survivor counts are full or nearly so, which does not show that the dose was tolerated: survival well below the control is almost never listed, so the zero probably covers shortened survival too. Counts of survivors are from the toxicity check (mostly the fifth day) where no day follows; animals may have died later. Schedules are NCI's codes, read here as Q, the interval in days (D) or hours (H), X, the number of doses. Some entries hold several experiments; their values stand side by side, smallest first. Where survival is the endpoint, this PubChem deposit counts one and a half times the control or more as active, and values a quarter to a half above the control carry no call in these data; other NCI protocols may use other cut-offs.

The test system of the assay is CD2F1 mice, L1210 leukemia ip, survival T/C. The experiment in a line: NCI In Vivo Anticancer Drug Screen. Data for tumor model L1210 Leukemia (intraperitoneal) in CD2F1 (CDF1) mice. The conditions noted are these: higher T/C = longer survival. The essentials: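 Each value reflects a quotient of treated over vehicle control outcomes in mice with a transplanted tumor.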

[1] abbreviates: T/C endpoint: mean survival time, dose: 200.0 mg/kg/injection, schedule: Q04DX003 (ip), vehicle: saline with Tween-80.
[2] abbreviates: T/C endpoint: mean survival time, dose: 300.0 mg/kg/injection, schedule: Q01DX001 (ip), vehicle: saline.
[3] abbreviates: T/C endpoint: mean survival time, dose: 400.0 mg/kg/injection, schedule: Q04DX002 (ip), vehicle: saline with Tween-80.
Where [4] appears, read: T/C endpoint: mean survival time, dose: 400.0 mg/kg/injection, schedule: Q04DX003 (ip), vehicle: saline with Tween-80.
Where [5] appears, read: T/C endpoint: median survival time, dose: 200.0 mg/kg/injection, schedule: Q01DX009 (ip), vehicle: saline with Tween-80.
The mark [6] stands for this setting: T/C endpoint: mean survival time, dose: 100.0 mg/kg/injection, schedule: Q04DX003 (ip), vehicle: saline with Tween-80.
[7] abbreviates: T/C endpoint: mean survival time, dose: 400.0 mg/kg/injection, schedule: Q01DX001 (ip), vehicle: saline with Tween-80.

In the case of `Nc1nc(N)nc(N)n1`, under “T/C endpoint: mean survival time, dose: 1600.0 mg/kg/injection, schedule: Q01DX009 (ip), vehicle: saline with Tween-80”, the survivor count is recorded as 6 of 10.
Turning to `O=C(O)c1ccccc1C(=O)Nc1ccc([N+](=O)[O-])cc1`, the survivor count under setting [1] is listed as 3 of 3.
For `CC(C)(C)/[N+]([O-])=N/O`, the survivor count by setting is: (T/C endpoint: mean survival time, dose: 150.0 mg/kg/injection, schedule: Q01DX001 (ip), vehicle: saline) 0 of 6; under setting [2], 0 of 6.
Turning to `CCN(CC)CC[C-]=O.[NH-]CC[NH-].[Pd]`, the survivor count is, setting by setting: (T/C endpoint: mean survival time, dose: 100.0 mg/kg/injection, schedule: Q04DX003 (ip), vehicle: water) 0 of 6; (T/C endpoint: mean survival time, dose: 200.0 mg/kg/injection, schedule: Q04DX003 (ip), vehicle: water) 0 of 6.
Regarding `NC(=S)N/N=C\c1nccc2c(C(F)(F)F)cccc12`, the survivor count under setting [3] is on record as 3 of 3.
Consider `Oc1ccc(O)c(CCCCCc2cc(O)ccc2O)c1`, for which, where the note is “T/C endpoint: mean survival time, dose: 400.0 mg/kg/injection, schedule: Q01DX009 (ip), vehicle: other”, the survivor count is 0 of 6.
`FC1(F)C(Cl)=[C]([Hg][C]2=C(Cl)C(F)(F)C(F)(F)C(F)(F)C2(F)F)C(F)(F)C(F)(F)C1(F)F`: the survivor count is listed as 1 of 6 (T/C endpoint: mean survival time, dose: 150.0 mg/kg/injection, schedule: Q04DX003 (ip), vehicle: saline) and 1 of 6 under setting [2].
Regarding `CC(=O)NC(CSCc1c2ccccc2c(C)c2c1ccc1ccccc12)C(=O)O` (configuration not stated), the survivor count under setting [4] is 6 of 6.
Regarding `CN(CC(=O)C(C)(C)C)C1CCCCC1`, the survivor count is reported as 0 of 4 (T/C endpoint: mean survival time, dose: 200.0 mg/kg/injection, schedule: Q04DX003 (ip), vehicle: saline) and 0 of 4 (T/C endpoint: mean survival time, dose: 400.0 mg/kg/injection, schedule: Q04DX003 (ip), vehicle: saline).
For `O=C(CN1CC1)NCCCCCCCNC(=O)CN1CC1`, the T/C was 136 % of control (T/C endpoint: mean survival time, dose: 9.7 mg/kg/injection, schedule: Q01DX001 (ip), vehicle: carboxymethylcellulose (CMC)); 135 % of control (T/C endpoint: mean survival time, dose: 22.0 mg/kg/injection, schedule: Q01DX001 (ip), vehicle: carboxymethylcellulose (CMC)); 139 % of control (T/C endpoint: mean survival time, dose: 33.0 mg/kg/injection, schedule: Q01DX001 (ip), vehicle: carboxymethylcellulose (CMC)); 146 % of control (T/C endpoint: mean survival time, dose: 75.0 mg/kg/injection, schedule: Q01DX001 (ip), vehicle: carboxymethylcellulose (CMC)). Further, the survivor count (T/C endpoint: mean survival time, dose: 112.0 mg/kg/injection, schedule: Q01DX001 (ip), vehicle: carboxymethylcellulose (CMC)) was 1 of 6.
Consider `CCC1(O)C(=O)OCc2c1cc1n(c2=O)Cc2cc3cc([N+](=O)[O-])ccc3nc2-1` (configuration not stated), for which the survivor count by setting is: (T/C endpoint: median survival time, dose: 31.0 mg/kg/injection, schedule: Q04DX002 (ip), vehicle: saline with Tween-80) 4 of 6 and 6 of 6; (T/C endpoint: median survival time, dose: 62.0 mg/kg/injection, schedule: Q04DX002 (ip), vehicle: saline with Tween-80) 4 of 6 and 6 of 6.
For `C/C(=N\NC(=S)N1CC2CCC(CC2)C1)c1nccs1`, the T/C (T/C endpoint: median survival time, dose: 25.0 mg/kg/injection, schedule: Q01DX009 (ip), vehicle: saline with Tween-80) was 125 % of control. The survivor count by setting is: (T/C endpoint: median survival time, dose: 100.0 mg/kg/injection, schedule: Q01DX009 (ip), vehicle: saline with Tween-80) 2 of 6 and 5 of 6; under setting [5], 0 of 6.
Regarding `CCCC(CCC)=NN=C(CCC)CCC`, the survivor count (T/C endpoint: mean survival time, dose: 400.0 mg/kg/injection, schedule: Q04DX002 (ip), vehicle: saline + alcohol) was 3 of 3.
As for `N#CC1=C(C#N)C(=O)c2ccccc2C1=O`, the survivor count under setting [6] is listed as 6 of 6, the survivor count under setting [1] is listed as 5 of 6 and the survivor count under setting [4] is 4 of 6.
Take `Cc1cccc(OCC2=NCCN2)c1C`: the survivor count (T/C endpoint: mean survival time, dose: 100.0 mg/kg/injection, schedule: Q04DX002 (ip), vehicle: saline with Tween-80) is given as 1 of 3; the survivor count (T/C endpoint: mean survival time, dose: 200.0 mg/kg/injection, schedule: Q04DX002 (ip), vehicle: saline with Tween-80) is 0 of 3; the survivor count under setting [3] is reported as 0 of 3.
`CCCC1=CC(C)(C)CC(C)=C1` (tested in a mixture with another compound): under setting [4], the survivor count was 3 of 6.
For `COC12C(COC(C)=O)C3=C(C(=O)C(C)=C(N4CCCCC4)C3=O)N1CC1NC12` (configuration not stated), the T/C runs as follows: (T/C endpoint: mean survival time, dose: 12.0 mg/kg/injection, schedule: Q01DX001 (ip), vehicle: distilled water + Tween-80) 136 and 144 % of control; (T/C endpoint: mean survival time, dose: 24.0 mg/kg/injection, schedule: Q01DX001 (ip), vehicle: distilled water + Tween-80) 134 and 138 % of control. For the same compound, the survivor count (T/C endpoint: mean survival time, dose: 48.0 mg/kg/injection, schedule: Q01DX001 (ip), vehicle: distilled water + Tween-80) is recorded as 2 of 6.
As for `C1=Cc2ccccc2/C1=C/c1cccc(/C=C2\C=Cc3ccccc32)c1`, the survivor count under setting [6] is on record as 6 of 6, the survivor count under setting [1] is reported as 6 of 6 and the survivor count under setting [4] was 6 of 6.
On to `C(=C(/C=C/c1ccccc1)/C=C/c1ccccc1)C(=C/c1ccccc1)/c1ccccc1`, for which the survivor count by setting is: (T/C endpoint: mean survival time, dose: 25.0 mg/kg/injection, schedule: Q01DX009 (ip), vehicle: saline with Tween-80) 6 of 6; (T/C endpoint: mean survival time, dose: 100.0 mg/kg/injection, schedule: Q01DX001 (ip), vehicle: saline with Tween-80) 6 of 6; (T/C endpoint: mean survival time, dose: 200.0 mg/kg/injection, schedule: Q01DX001 (ip), vehicle: saline with Tween-80) 6 of 6; under setting [7], 6 of 6.
As to `COC(=O)c1ccc(C2CCC(OC(c3ccccc3)c3ccccc3)CC2)cc1` (configuration not stated), the survivor count under setting [6] is 6 of 6.
Consider `CN(CCCCN(C)CCOS(C)(=O)=O)CCOS(C)(=O)=O`, for which the T/C (T/C endpoint: mean survival time, dose: 1.7 mg/kg/injection, schedule: Q01DX009 (ip), vehicle: saline) was 135 % of control; the T/C (T/C endpoint: mean survival time, dose: 2.6 mg/kg/injection, schedule: Q01DX009 (ip), vehicle: saline) was 125 % of control; the T/C (T/C endpoint: mean survival time, dose: 5.5 mg/kg/injection, schedule: Q01DX001 (ip), vehicle: saline) is 140 % of control. Besides, the survivor count is 6 of 6 (T/C endpoint: mean survival time, dose: 6.0 mg/kg/injection, schedule: Q01DX009 (ip), vehicle: saline) and 4 of 6 (T/C endpoint: mean survival time, dose: 50.0 mg/kg/injection, schedule: Q01DX001 (ip), vehicle: saline).
For `c1ccc(CNCCCNCc2ccccn2)nc1`, the survivor count (T/C endpoint: mean survival time, dose: 400.0 mg/kg/injection, schedule: Q01DX001 (ip), vehicle: saline) is 0 of 6.
With `Nc1ccc2c(c1)CN1C(=O)c3ccccc3C1=N2`, the survivor count under setting [5] is on record as 5 of 6.
For `O=NN(CCCl)C(=O)NCCO`, the T/C by setting is: (T/C endpoint: mean survival time, dose: 5.0 mg/kg/injection, schedule: Q01DX001 (ip), vehicle: water) 138 % of control; (T/C endpoint: mean survival time, dose: 12.5 mg/kg/injection, schedule: Q01DX009 (ip), vehicle: water) 127 % of control. Also, the survivor count by setting is: (T/C endpoint: mean survival time, dose: 25.0 mg/kg/injection, schedule: Q01DX009 (ip), vehicle: water) 6 of 6; (T/C endpoint: mean survival time, dose: 40.0 mg/kg/injection, schedule: Q01DX001 (ip), vehicle: water) 6 of 6; (T/C endpoint: mean survival time, dose: 50.0 mg/kg/injection, schedule: Q01DX009 (ip), vehicle: water) 3 of 6 and 5 of 6; (T/C endpoint: mean survival time, dose: 100.0 mg/kg/injection, schedule: Q01DX009 (ip), vehicle: water) 3 of 6; (T/C endpoint: mean survival time, dose: 200.0 mg/kg/injection, schedule: Q01DX009 (ip), vehicle: water) 0 of 6; (T/C endpoint: median survival time, dose: 24.0 mg/kg/injection, schedule: Q01DX009 (ip), vehicle: water) 6 of 6. Also, the survivor count is, setting by setting: (T/C endpoint: median survival time, dose: 25.0 mg/kg/injection, schedule: Q01DX009 (ip), vehicle: water) 5 of 6; (T/C endpoint: median survival time, dose: 50.0 mg/kg/injection, schedule: Q01DX009 (ip), vehicle: water) 4 of 6.
`C1CCN(CN2CCCCC2)CC1`: where the note is “T/C endpoint: mean survival time, dose: 100.0 mg/kg/injection, schedule: Q04DX003 (ip), vehicle: saline”, the survivor count was 4 of 6.
For `CC1/C(=N/O)C(=O)c2ccccc21` (configuration not stated), the survivor count reads like this: (T/C endpoint: mean survival time, dose: 200.0 mg/kg/injection, schedule: Q01DX009 (ip), vehicle: saline with Tween-80) 3 of 6; under setting [7], 3 of 6.

For the origin of these results see PubChem BioAssay AID256 (DTP/NCI, 2004).
